“Also recorded” adds a separate entry of the source. At least one structure is not confirmed: it was looked up by name or label, or the drawing left a doubt.
Key:
[1] = system: human mesenchymal stem cells (hMSC); test: Alkaline phosphatase activity in hMSC cultures induced to differentiate into osteoblasts; type: cell-based; settings: hMSC cultured 9 days with 5-LO inhibitors, relative to DMSO; FIG. 8
Experimental: (§1) In order to determine the ability of inhibitors of 15-lipoxygenase to stimulate bone formation and bone accretion, the ability of the 15-LO inhibitors to promote measures of differentiation of stem cells into bone forming cells (osteoblasts) was tested in vitro.
(§2) Four to eight independent replicate cultures were prepared at each dose level. At the end of the experiments, the cultured cells were harvested by scraping the wells into the appropriate medium for further analysis of either alkaline phosphatase (Sigma kit#104-LL), or cellular calcium (Sigma kit#587-M). Cultures harvested for alkaline phosphatase assessment were harvested by scraping the cells and resuspending into 250 μL Tris buffered 0.1% Triton X-100, and then assayed either fresh or following freeze-thaw. Separate cultures to be assayed for total calcium content were scraped and resuspended into 250 μL 0.5M HCL. Results of these assays were normalized to total cellular DNA, thereby normalizing for differences in cell proliferation. At the same times that cultures were harvested for alkaline phosphatase and calcium, separate replicate cultures were harvested by scraping the cells and resuspending them in 250 μL Hank's Balanced Salt Solution, and cellular number assessed by DNA (DNeasy Tissue Kit, Qiagen cat#69506).
[…] Three different sets of experiments were performed.
The plates were cultured for 14 days. […]

[2] = system: human mesenchymal stem cells (hMSC); test: Total calcium content of hMSC cultures induced to differentiate into osteoblasts; type: cell-based; settings: hMSC cultured 16 days with 5-LO inhibitors, relative to DMSO or 1,25-Vitamin D3; FIG. 9
Experimental: as §1, §2
Inhibitors were added either on Day 1 or Day 11. […]

Compound: CC1=C(C)C(=O)C(CCCCC#CCCCC#CCO)=C(C)C1=O [AA-861]
- alkaline phosphatase activity [1]: lack ability to induce; also recorded: lack of a response
- culture calcium deposition (total calcium content) [2]: lack ability to induce; also recorded: lack of a response

Source: patent US20030175680A1, “Methods of treating and preventing bone loss” (priority 2002, published 2003)
